The values that follow come from PMC3322156.

The chains behind the UniProt entries cited, without tags or fusion partners. Where a name states a change or a piece, a line headed by the entry shows the natural chain unless it says otherwise.
UniProt Q9CQJ4: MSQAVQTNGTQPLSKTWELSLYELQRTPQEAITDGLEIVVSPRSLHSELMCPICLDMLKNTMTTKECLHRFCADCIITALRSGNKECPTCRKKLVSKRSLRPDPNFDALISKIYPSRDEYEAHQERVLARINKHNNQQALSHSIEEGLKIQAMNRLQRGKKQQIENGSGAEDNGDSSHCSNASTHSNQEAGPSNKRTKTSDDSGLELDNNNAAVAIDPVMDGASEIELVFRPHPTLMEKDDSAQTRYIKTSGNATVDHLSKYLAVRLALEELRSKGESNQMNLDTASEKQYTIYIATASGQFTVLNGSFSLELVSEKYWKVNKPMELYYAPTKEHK
UniProt Q8CGN4: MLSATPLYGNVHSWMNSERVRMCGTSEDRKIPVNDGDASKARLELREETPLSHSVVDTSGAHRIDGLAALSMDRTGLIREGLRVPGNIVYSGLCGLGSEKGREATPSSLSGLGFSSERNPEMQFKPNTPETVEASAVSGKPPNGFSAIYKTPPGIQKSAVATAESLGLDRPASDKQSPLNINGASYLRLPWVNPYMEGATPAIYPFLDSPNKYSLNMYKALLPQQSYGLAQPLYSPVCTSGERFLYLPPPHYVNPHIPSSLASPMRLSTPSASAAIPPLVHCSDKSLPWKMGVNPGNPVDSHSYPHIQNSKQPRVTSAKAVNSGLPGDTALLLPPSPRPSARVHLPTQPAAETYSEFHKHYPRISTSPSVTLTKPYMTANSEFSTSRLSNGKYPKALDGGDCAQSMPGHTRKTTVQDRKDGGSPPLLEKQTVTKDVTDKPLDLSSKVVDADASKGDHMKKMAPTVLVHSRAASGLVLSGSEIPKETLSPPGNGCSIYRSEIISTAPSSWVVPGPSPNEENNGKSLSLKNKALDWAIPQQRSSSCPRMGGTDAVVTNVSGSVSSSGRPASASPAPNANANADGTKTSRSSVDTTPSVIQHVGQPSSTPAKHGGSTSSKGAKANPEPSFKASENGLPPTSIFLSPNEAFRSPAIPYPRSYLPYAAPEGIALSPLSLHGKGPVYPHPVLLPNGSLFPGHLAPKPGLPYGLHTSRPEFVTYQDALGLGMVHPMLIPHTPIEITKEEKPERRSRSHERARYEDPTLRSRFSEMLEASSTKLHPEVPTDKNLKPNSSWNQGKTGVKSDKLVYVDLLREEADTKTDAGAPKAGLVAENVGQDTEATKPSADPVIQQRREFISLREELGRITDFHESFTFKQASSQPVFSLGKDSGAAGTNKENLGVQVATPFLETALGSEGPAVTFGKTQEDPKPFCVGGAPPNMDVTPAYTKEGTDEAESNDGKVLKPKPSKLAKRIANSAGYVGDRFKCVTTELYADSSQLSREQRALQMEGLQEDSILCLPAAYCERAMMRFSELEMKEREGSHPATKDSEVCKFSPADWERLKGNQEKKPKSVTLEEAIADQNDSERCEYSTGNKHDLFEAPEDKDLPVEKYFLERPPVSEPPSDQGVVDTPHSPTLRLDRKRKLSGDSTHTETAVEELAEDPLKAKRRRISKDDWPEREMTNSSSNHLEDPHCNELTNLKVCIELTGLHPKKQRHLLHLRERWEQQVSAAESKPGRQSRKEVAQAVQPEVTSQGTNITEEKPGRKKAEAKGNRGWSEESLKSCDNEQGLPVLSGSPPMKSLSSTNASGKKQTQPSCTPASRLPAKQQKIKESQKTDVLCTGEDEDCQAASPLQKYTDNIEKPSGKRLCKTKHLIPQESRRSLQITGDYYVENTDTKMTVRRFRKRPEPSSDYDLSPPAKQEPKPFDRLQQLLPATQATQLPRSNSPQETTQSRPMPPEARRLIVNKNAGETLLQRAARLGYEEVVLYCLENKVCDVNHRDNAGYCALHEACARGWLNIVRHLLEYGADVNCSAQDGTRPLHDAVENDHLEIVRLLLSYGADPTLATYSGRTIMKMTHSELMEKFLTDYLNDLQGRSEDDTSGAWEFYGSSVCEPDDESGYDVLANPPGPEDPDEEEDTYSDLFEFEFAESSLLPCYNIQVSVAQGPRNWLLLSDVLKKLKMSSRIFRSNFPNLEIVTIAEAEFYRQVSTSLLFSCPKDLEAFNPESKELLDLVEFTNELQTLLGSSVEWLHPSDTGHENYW
UniProt Q8R3B7: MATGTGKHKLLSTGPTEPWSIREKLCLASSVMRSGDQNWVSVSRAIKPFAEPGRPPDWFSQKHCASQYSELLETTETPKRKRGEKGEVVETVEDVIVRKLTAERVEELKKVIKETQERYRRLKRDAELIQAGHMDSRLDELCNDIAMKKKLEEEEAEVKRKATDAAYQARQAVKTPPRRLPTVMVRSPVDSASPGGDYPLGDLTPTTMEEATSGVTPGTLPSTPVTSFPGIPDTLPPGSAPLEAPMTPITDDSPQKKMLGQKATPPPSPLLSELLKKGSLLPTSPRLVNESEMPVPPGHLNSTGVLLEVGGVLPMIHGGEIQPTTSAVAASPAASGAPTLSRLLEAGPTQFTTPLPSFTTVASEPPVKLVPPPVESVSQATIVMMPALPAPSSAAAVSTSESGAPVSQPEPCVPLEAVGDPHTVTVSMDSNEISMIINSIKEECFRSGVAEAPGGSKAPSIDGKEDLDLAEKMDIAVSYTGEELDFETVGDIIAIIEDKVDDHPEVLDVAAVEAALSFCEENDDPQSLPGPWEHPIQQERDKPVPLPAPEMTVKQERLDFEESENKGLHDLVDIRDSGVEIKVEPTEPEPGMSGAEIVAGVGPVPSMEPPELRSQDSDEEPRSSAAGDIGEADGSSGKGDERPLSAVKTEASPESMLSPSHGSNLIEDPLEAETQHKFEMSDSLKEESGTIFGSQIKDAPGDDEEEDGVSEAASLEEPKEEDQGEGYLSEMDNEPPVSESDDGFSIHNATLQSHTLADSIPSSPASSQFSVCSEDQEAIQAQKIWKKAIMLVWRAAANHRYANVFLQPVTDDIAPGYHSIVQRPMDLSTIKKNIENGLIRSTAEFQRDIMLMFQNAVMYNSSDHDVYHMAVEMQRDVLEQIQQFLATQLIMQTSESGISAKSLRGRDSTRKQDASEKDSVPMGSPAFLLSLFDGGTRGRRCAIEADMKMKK
UniProt Q8C9X6: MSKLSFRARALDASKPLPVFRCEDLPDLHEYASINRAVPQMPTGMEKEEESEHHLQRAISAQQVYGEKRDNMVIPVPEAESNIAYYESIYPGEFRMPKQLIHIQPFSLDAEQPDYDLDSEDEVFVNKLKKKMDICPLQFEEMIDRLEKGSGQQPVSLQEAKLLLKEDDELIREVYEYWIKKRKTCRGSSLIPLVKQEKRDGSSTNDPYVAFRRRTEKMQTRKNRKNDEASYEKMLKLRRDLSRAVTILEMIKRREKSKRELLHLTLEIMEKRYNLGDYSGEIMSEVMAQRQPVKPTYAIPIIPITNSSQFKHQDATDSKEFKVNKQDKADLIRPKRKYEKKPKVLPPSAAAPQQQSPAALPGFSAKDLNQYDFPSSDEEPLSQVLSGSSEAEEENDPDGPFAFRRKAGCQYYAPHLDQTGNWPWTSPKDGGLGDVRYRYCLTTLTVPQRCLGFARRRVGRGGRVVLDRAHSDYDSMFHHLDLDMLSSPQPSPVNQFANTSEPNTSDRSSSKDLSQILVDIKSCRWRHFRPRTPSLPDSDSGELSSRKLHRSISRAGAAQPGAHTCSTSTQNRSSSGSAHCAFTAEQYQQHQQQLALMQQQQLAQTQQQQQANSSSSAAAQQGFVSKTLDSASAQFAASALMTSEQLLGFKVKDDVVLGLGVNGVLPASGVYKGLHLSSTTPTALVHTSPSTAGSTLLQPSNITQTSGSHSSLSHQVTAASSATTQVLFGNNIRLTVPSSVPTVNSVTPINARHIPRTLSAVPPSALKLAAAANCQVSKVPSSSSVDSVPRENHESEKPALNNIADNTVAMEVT
UniProt Q9DAT2: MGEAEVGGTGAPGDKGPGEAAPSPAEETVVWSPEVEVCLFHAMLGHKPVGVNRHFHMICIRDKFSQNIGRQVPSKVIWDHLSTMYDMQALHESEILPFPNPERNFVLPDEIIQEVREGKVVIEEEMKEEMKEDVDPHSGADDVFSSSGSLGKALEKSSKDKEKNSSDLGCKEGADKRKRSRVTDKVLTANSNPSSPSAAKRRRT
UniProt Q6NZQ4: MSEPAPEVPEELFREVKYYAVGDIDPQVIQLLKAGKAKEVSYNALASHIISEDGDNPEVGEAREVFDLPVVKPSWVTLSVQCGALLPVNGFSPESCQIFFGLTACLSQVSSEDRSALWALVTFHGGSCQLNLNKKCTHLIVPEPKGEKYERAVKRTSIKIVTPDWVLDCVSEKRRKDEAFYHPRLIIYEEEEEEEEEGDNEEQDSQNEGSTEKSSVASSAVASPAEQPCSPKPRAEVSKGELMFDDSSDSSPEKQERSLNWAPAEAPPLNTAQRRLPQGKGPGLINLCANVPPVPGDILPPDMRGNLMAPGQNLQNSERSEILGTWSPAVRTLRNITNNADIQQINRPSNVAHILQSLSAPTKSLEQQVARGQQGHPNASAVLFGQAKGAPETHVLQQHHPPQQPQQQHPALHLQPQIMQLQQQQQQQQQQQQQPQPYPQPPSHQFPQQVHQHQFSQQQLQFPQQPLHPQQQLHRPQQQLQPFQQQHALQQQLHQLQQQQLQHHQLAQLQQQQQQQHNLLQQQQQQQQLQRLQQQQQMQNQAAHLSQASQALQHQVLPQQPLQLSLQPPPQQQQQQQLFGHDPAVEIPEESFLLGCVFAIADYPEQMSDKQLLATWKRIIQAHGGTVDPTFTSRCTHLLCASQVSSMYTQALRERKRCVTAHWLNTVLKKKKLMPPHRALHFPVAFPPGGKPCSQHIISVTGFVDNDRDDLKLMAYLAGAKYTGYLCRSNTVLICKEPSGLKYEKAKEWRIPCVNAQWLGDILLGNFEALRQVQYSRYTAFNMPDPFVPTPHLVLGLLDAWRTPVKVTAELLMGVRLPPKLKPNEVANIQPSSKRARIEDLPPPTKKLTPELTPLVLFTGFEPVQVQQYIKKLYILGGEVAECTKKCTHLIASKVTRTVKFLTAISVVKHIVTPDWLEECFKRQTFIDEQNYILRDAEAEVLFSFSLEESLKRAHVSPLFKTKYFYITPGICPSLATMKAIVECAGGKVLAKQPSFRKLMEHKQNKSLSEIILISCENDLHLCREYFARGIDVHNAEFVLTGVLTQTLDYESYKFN
UniProt O35730: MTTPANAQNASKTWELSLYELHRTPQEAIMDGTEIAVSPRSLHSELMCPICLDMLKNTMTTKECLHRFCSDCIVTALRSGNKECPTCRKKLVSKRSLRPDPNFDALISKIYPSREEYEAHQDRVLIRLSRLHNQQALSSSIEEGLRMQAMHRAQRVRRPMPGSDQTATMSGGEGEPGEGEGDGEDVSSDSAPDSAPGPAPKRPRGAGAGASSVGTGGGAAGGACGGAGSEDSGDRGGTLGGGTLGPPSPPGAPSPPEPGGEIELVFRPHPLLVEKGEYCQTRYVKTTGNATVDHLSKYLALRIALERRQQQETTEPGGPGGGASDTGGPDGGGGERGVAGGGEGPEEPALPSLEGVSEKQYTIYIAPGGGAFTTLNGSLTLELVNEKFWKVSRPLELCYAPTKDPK
UniProt Q91ZW3: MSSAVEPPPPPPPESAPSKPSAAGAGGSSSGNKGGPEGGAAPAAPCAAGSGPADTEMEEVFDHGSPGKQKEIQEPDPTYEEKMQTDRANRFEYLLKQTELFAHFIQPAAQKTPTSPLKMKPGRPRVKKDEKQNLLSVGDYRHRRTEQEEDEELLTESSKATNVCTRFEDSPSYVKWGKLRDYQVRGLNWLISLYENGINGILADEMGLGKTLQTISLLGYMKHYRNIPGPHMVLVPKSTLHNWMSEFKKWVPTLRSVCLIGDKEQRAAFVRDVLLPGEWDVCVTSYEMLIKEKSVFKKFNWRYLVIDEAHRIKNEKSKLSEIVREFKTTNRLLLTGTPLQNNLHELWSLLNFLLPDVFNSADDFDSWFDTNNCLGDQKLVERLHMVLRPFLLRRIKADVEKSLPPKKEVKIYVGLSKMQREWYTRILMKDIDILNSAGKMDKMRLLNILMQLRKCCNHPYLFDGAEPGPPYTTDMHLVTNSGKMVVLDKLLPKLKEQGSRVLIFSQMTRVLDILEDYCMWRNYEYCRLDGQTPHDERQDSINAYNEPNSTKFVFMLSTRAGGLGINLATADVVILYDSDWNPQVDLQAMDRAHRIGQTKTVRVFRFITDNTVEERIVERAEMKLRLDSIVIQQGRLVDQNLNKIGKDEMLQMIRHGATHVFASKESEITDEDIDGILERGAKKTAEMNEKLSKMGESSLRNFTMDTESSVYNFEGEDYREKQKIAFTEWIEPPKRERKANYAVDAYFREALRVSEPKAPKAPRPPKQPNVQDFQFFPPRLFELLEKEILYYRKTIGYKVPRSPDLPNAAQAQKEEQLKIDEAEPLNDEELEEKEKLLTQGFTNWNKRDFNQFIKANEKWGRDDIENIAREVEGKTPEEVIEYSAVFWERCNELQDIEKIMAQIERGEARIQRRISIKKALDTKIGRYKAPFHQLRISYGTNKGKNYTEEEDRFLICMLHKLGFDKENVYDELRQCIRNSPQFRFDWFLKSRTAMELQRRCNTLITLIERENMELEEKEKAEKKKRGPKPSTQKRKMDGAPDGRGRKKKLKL

The target in experiment [1] is Ring1B (mouse (endogenous in ESCs)) (UniProt Q9CQJ4). In words: affinity purification with mass spectrometry; IP with anti-Ring1B (MBL, D139-3) from 400 ug ESC nuclear extract (WT cells, or Ring1B-/- cells rescued with Ring1BI53A), Protein G Sepharose 2 h at 4 C, washes BC300 (300 mM NaCl, 0.05% NP40) and BC100; 4-20% SDS-PAGE, bands cut, nLC-ESI-MS/MS; peptides also in the control IgG lane discarded; IgG heavy and light chain bands omitted.

The target of a further experiment is Ring1BI53A (UniProt Q9CQJ4). Described as above.

Results are given in words; binding and its absence hold for the method and conditions named. In cells and extracts the contact can be indirect. These calls come from enrichment with a bait or labelling near it, and not all partners need be listed.

Regarding BcoR (from UniProt Q8CGN4 1-1759), the binding entry (in experiment [1]; with Ring1BI53A) was “binds” each time.

Brd8 (from UniProt Q8R3B7 1-951): the binding result (in experiment [1]; with Ring1BI53A) was “binds” each time.

For the substance “CBP (from UniProt P45481 1-2441) (enzyme)”, the binding entry (in experiment [1]; in the experiment with Ring1BI53A) was “binds” throughout.

Turning to Dmap1 (from UniProt Q9JI44 1-468), the binding result (in experiment [1]; in the experiment with Ring1BI53A) was “binds” throughout.

As for E2F.6 (from UniProt O54917 1-272), the binding entry with Ring1BI53A is given as “binds”.

With Epc1 (from UniProt Q8C9X6 1-813), the binding result (in experiment [1]; with Ring1BI53A) was “binds” in each case.

As for L3mbtl2 (from UniProt P59178 1-703), the binding entry (in experiment [1]; in the experiment with Ring1BI53A) was “binds” throughout.

Turning to Mbtd1 (from UniProt Q6P5G3 1-631), the binding result (in experiment [1]; with Ring1BI53A) was “binds” each time.

For Mga (from UniProt A2AWL7 1-3003), the binding entry (in experiment [1]; with Ring1BI53A) was “binds” throughout.

On to Mrgbp (from UniProt Q9DAT2 1-204), for which the binding entry (in experiment [1]; in the experiment with Ring1BI53A) was “binds” throughout.

As to Paxip1 (from UniProt Q6NZQ4 1-1056), the binding entry (in experiment [1]; with Ring1BI53A) was “binds” each time.

On to Ring1A (from UniProt O35730 1-406), for which the binding entry (in experiment [1]; with Ring1BI53A) was “binds” in each case.

Turning to Ruvbl2 (from UniProt Q9WTM5 1-463), the binding entry (in experiment [1]; with Ring1BI53A) was “binds” each time.

Consider Snf2h (from UniProt Q91ZW3 1-1051), for which the binding result (in experiment [1]; with Ring1BI53A) was “binds” throughout.
